Experimental data from article doi:10.1101/2022.03.04.482790.

How the values were obtained:
Assay in all cases: ReLo
[1] = target: T1, Drosophila Nanos (Drosophila) (UniProt P25724)
T1 sequence: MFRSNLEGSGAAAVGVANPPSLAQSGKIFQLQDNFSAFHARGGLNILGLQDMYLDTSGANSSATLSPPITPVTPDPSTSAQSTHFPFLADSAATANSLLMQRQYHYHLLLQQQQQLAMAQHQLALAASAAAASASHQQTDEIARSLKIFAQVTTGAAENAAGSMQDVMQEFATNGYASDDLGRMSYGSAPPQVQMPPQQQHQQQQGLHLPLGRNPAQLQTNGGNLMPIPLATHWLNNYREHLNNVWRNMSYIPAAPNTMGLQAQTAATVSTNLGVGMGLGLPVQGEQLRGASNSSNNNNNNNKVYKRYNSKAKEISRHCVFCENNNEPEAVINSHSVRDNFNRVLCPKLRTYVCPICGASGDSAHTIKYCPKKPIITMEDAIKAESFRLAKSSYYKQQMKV

[2] = target: T2, NOT2 (subunit of the Drosophila CCR4-NOT core complex) (Drosophila) (UniProt Q94547)
T2 sequence: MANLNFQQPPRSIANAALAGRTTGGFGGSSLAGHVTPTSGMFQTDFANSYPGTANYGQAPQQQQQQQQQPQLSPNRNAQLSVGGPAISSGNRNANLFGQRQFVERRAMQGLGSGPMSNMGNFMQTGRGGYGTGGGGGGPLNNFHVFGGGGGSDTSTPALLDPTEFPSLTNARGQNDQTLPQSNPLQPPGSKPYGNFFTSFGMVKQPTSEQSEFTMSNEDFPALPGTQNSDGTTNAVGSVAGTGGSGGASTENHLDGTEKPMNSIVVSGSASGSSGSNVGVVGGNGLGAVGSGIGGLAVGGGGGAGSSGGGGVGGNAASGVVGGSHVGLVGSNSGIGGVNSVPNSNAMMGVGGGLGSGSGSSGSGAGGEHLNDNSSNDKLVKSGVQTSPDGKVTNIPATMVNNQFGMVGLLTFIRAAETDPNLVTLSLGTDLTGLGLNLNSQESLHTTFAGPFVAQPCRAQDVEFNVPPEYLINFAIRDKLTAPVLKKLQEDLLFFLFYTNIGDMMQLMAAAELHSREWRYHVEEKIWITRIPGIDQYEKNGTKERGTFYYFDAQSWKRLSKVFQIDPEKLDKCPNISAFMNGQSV

[3] = target: T3, Drosophila Cup (Drosophila) (UniProt Q9VMA3)
T3 sequence: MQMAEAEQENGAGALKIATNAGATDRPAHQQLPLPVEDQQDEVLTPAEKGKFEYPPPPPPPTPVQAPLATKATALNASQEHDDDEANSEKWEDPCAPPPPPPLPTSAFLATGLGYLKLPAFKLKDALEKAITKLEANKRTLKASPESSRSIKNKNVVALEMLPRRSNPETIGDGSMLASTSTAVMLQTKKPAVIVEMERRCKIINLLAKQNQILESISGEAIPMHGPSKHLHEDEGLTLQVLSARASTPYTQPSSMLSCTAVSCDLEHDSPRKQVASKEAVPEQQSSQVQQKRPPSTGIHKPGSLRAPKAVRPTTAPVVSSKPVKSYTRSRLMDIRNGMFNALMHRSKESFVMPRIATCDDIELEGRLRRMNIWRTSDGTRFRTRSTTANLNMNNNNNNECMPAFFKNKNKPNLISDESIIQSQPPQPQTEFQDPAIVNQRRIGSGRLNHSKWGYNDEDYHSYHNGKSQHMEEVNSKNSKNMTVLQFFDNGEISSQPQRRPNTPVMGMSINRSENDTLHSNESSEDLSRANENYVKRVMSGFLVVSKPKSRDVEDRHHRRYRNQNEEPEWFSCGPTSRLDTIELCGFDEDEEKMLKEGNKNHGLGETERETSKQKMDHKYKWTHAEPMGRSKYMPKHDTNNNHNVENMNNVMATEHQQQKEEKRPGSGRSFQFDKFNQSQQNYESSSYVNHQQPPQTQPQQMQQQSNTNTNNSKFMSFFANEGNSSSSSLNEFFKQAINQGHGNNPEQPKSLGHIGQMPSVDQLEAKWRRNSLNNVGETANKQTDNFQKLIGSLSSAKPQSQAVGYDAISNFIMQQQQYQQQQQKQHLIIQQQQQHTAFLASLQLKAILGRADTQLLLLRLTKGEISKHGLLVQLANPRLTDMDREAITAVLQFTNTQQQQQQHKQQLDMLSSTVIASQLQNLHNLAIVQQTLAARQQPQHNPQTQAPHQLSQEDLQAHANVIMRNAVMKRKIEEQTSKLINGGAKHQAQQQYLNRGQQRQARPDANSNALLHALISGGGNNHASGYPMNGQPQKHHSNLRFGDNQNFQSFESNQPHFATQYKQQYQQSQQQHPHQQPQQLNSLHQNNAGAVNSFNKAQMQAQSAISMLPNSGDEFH

[4] = target: T1, Drosophila Nanos (Drosophila); remark: listed apart in the source
[5] = target: T2, NOT2 (subunit of the Drosophila CCR4-NOT core complex) (Drosophila); remark: listed apart in the source

| binding [1] | binding [2] | binding [3] | binding [4] | binding [5] | Substance |
| --- | --- | --- | --- | --- | --- |
| binds | no binding | binds | no binding (only with Cup coexpressed) |  | Bruno |
|  | no binding |  |  | no binding | CAF1 (subunit of the Drosophila CCR4-NOT core complex) |

Where two headings read alike, the source gives them in different places. These are yes or no findings as the source states them, for the method shown. For part of these data: Binding can be weak; no strength is given.
